{
  "source": "patent US20040219523",
  "assay_in_all_cases": "activity assay",
  "key": {"[1]": {"molecular_target": "lysozyme, hen egg white (Gallus gallus) (UniProt P00698)", "conditions": "purified native protein"}, "[2]": {"molecular_target": "ppERK2 (diphosphorylated ERK) (UniProt P28482)", "conditions": "purified recombinant protein, protein details: diphosphorylated form"}, "[3]": {"tested_on": "ERK2 (non-phosphorylated MAP kinase ERK)", "conditions": "purified recombinant protein"}, "[4]": {"conditions": "allosteric cleavage sensitive to ERK concentration, label: internal 32P, dose not given here"}, "[5]": {"conditions": "relative ppERK dependence of cleavage, dose not given here"}, "[6]": {"conditions": "ERK-dependent ligation, dose not given here"}},
  "note": "For part of these data: Negatives hold for the conditions tested. For part of these data: Construct, isoform or probe ends are uncertain for at least one entry.",
  "data": [
    {"sequence": "GGACCUCGGCGAAAGCUAACGUCUCAUGGCUAAAUUGCCAUGUUGCUACAAAUGAUAUGACUAGAGAGGUUAAGGUGCGAGCCGAGAGGCUCGCACUG [C.lys.L1.C]", "values": [
      {"measurement": "functional effect of the aptamer", "setting": "[1]; self-ligation increased by 1 uM lysozyme", "value": "active"}
    ]},
    {"sequence": "GGACCUCGGCGAAAGCUAACGUCUCAUGGCUAAAUUGCCAUGUUGCUACAAAUGAUAUGACUAGAGAGGUUAGCGAGAGUG [C.lys.L1.A]", "values": [
      {"measurement": "functional effect of the aptamer", "setting": "[1]; no ligation observed, stem length critical, dose not given here", "value": "not active"}
    ]},
    {"sequence": "GGACCUCGGCGAAAGCUAACGUCUCAUGGCUAAAUUGCCAUGUUGCUACAAAUGAUAUGACUAGAGAGGUUAGGUGCGAGAGCACUG [C.lys.L1.B]", "values": [
      {"measurement": "functional effect of the aptamer", "setting": "[1]; self-ligation increased by 1 uM lysozyme, also in HeLa extract", "value": "active"}
    ]},
    {"sequence": "GGACUUCGGCGAAAGCCGUUCGACCACGGUCAGACGCUAGCGAAUUGGUUCCUCGAAAGGGGAAAGCGUUAUUAAGAAACCAAAAUGAUUGUCUUAGACAGGAGGUUAGGUGCGGCUUUGGUCCAAGGACAUCUCGAAU [ppERK ligase construct 33 (TK.16.118.M)]", "values": [
      {"measurement": "functional effect of the aptamer", "setting": "[2]; specifically activated by ppERK, 1 uM protein, 10 mM MgCl2", "value": "active"}
    ]},
    {"sequence": "GGACUUCGGCGAAAGCCGUUCGACCAGCUAAGGAGGAUUUCCGAAAGCGGCUACGGCCGCCAGCUCUUAGACAGGAGGUUAGGUGCGAGAGCACU [1-piece ligase construct 28]", "values": [
      {"measurement": "functional effect of the aptamer", "setting": "[3]; switch factor and ERK modulation KD unchanged relative to 3-piece ligase, dose not given here", "value": "active"}
    ]},
    {"sequence": "GGGCGACCCUGAUGAGCCUUCUAAGGAGGAUUUCCGAAAGCGGCACGGUCCGCCAGACGUCGAAACGGUGAAAGCCGUAGGUUGCC [hammerhead NASM construct 1-2]", "values": [
      {"measurement": "functional effect of the aptamer", "setting": "[3]; [4]", "value": "active"}
    ]},
    {"sequence": "GGGCGACCCUGAUGAGCCUUGCAGACGCUAGCGAAUUGGUUCCUCGAAAGGGGAAAGCGUUAUUAAGAAACCAAAAUGUACGUCGAAACGGUGAAAGGCCGUAGGUAGCC [ppERK hammerhead construct 12]", "values": [
      {"measurement": "functional effect of the aptamer", "setting": "[2]; [5]", "value": "active"}
    ]},
    {"sequence": "GGGCGACCCUGAUGAGGGUCGCUAAGGAGGAUUUCCGAAAGCGGCACGGUCCGCCAGACGUCGAAACGGUGAAAGCCGUAGGUUGCC [hammerhead NASM construct 1-14]", "values": [
      {"measurement": "functional effect of the aptamer", "setting": "[3]; allosteric cleavage, dose dependent at 5-100 nM ERK, suppressed by staurosporine and iodotubercidin, label: internal 32P", "value": "active"},
      {"measurement": "functional effect of the aptamer", "setting": "[2]; significant cleavage only with non-phosphorylated ERK, label: internal 32P, dose not given here", "value": "not active"}
    ]},
    {"sequence": "GGGCGACCCUGAUGAGUCACGCAGACGCUAGCGAAUUGGUUCCUCGAAAGGGGAAAGCGUUAUUAAGAAACCAAAAUGUGUUACGAAACGGUGAAAGGCCGUAGGUAGCC [ppERK hammerhead construct 6]", "values": [
      {"measurement": "functional effect of the aptamer", "setting": "[2]; [5]", "value": "active"}
    ]},
    {"sequence": "GGGCGACCCUGAUGAGUCACGCAGACGCUAGCGAAUUGGUUCCUCGAAAGGGGAAAGCGUUAUUAAGAAACCAAAAUGUGUUGCGAAACGGUGAAAGGCCGUAGGUAGCC [ppERK hammerhead construct 10]", "values": [
      {"measurement": "functional effect of the aptamer", "setting": "[2]; [5]", "value": "active"}
    ]},
    {"sequence": "GGGCGACCCUGAUGAGUCUUCUAAGGAGGAUUUCCGAAAGCGGCACGGUCCGCCAGUACGUCGAAACGGUGAAAGCCGUAGGUUGCC [hammerhead NASM construct 1-13]", "values": [
      {"measurement": "functional effect of the aptamer", "setting": "[3]; [4]", "value": "active"}
    ]},
    {"sequence": "UGCACUGGACUUCGGCGAAAGCCGUUCGACCACGCUAAGGAGGAUUUCCGAAAGCGGCUACGUGCCGCCAGUGUCUUAGACAGGAGGUUAGGUGCCGUCCGACUGAUCUCGGAGUUAAACG [3-piece ligase construct 17 (clone A, DG.20.58A)]", "values": [
      {"measurement": "functional effect of the aptamer", "setting": "[3]; [6]", "value": "active"}
    ]},
    {"sequence": "UGCACUGGACUUCGGCGAAAGCCGUUCGACCAGCUAAGGAGGAUUUCCGAAAGCGGCUACGUGCCGCCAGCUCUUAGACAGGAGGUUAGGUGCCGUCCGACUGAUCUCGGAGUUAAACG [3-piece ligase construct 19 (clone E, DG.20.58E)]", "values": [
      {"measurement": "functional effect of the aptamer", "setting": "[3]; ERK-dependent ligation, dose dependent 0-3.2 uM, works in 10% 293 extract, inhibited by staurosporine, 10 mM MgCl2, 100 mM NaCl, 30 mM Tris pH 7.5", "value": "active"}
    ]},
    {"sequence": "UGCACUGGACUUCGGCGAAAGCCGUUCGACCAGCUAAGGAGGAUUUCCGAAAGCGGCUACGUGCCGCCAGUUCUUAGACAGGAGGUUAGGUGCCGUCCGACUGAUCUCGGAGUUAAACG [3-piece ligase construct 18 (clone B)]", "values": [
      {"measurement": "functional effect of the aptamer", "setting": "[3]; [6]", "value": "active"}
    ]}
  ]
}
